{
  "source": "PubChem BioAssay AID2685",
  "about": "(National Center for Advancing Translational Sciences (NCATS), 2010)",
  "assay": "qHTS Assay for Lipid Storage Modulators in Drosophila S3 Cells;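 for cell number change: cells counted by Cell Tracker Red CMTPX staining in the red channel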",
  "settings": "BODIPY lipid droplet fluorescence, 18-24 h; for cell number change: measured here: cell count max response, cells fed with added oleic acid",
  "how_it_was_run": "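Laser-scanning cytometry quantifies lipid droplet accumulation (500–530 nm total intensity; droplet/cell object ratio) in oleic acid-fed (400 uM added) Drosophila S3 cells treated with a concentration series. 20 uM Triacsin C defined 100% inhibition.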",
  "key": {"[1]": {"settings": "measured here: cell number channel AC50, cells fed with added oleic acid"}, "[2]": {"settings": "measured here: lipid fluorescence (Fed channel) AC50, cells fed with added oleic acid"}},
  "note": "This is one part of the list. Further columns of the screen follow, without active or inactive calls. Compounds called inactive in the main read-out are mostly missing here. Potencies come from curve fits of mixed quality, noted in brackets.",
  "data": [
    {"smiles": "CCOc1ccc(S(=O)(=O)c2c[nH]c3ccccc3c2=O)cc1", "values": [
      {"measurement": "cell number change", "value": 48.6, "unit": "%"},
      {"measurement": "AC50", "setting": "[1]", "value": "29.1 µM [rising, single point]"}
    ]},
    {"smiles": "COC(=O)C(Cc1c[nH]c2ccccc12)NC(=O)c1ccc2nc[nH]c2c1", "note": "(stereo not given)", "values": [
      {"measurement": "cell number change", "value": -14.6, "unit": "%"}
    ]},
    {"smiles": "COc1cc(C(c2oc(CO)cc(=O)c2O)c2oc(CO)cc(=O)c2O)cc(OC)c1OC", "values": [
      {"measurement": "cell number change", "value": -42.6, "unit": "%"},
      {"measurement": "AC50", "setting": "[1]", "value": "0.13 µM [rising, full curve, poor fit]"}
    ]},
    {"smiles": "O=C(Cc1ccccc1Cl)N1CCOCC1", "values": [
      {"measurement": "cell number change", "value": -22.8, "unit": "%"}
    ]},
    {"smiles": "C=CCNC(=O)CSc1nnc(C(CC)N(C)C)n1C1CCCCC1", "note": "(stereo not given)", "values": [
      {"measurement": "cell number change", "value": 26.5, "unit": "%"},
      {"measurement": "AC50", "setting": "[2]", "value": "0.0082 µM [rising, full curve, poor fit]"}
    ]},
    {"smiles": "CC(C)c1ccc(NC2=CC(=O)CC(C)(C)C2)cc1", "values": [
      {"measurement": "cell number change", "value": -39.7, "unit": "%"},
      {"measurement": "AC50", "setting": "[2]", "value": "16.4 µM [falling, partial curve]"}
    ]},
    {"smiles": "CCc1nnc(NC(=O)CSc2nnc(COc3ccc(C)cc3)n2-c2ccccc2)s1", "values": [
      {"measurement": "cell number change", "value": -11.2, "unit": "%"},
      {"measurement": "AC50", "setting": "[1]", "value": "3.26 µM [rising, single point]"}
    ]},
    {"smiles": "CN(C(=O)c1cc2ccccc2cc1O)C1CCCCC1", "values": [
      {"measurement": "cell number change", "value": 18.5, "unit": "%"}
    ]},
    {"smiles": "COc1ccc(Cc2nnc(Nc3ccc(C)cc3C)[nH]c2=O)cc1", "values": [
      {"measurement": "cell number change", "value": -141, "unit": "%"}
    ]},
    {"smiles": "O=C(Nc1cccc(-c2nc3ccccc3s2)c1)C1=COCCO1", "values": [
      {"measurement": "cell number change", "value": 11, "unit": "%"},
      {"measurement": "AC50", "setting": "[2]", "value": "18.4 µM [rising, partial curve, poor fit]"}
    ]},
    {"smiles": "Cc1[nH]oc(=O)c1N=Nc1c(Cl)cccc1Cl", "values": [
      {"measurement": "cell number change", "value": -18.8, "unit": "%"}
    ]},
    {"smiles": "CN1N=C2c3ccccc3CCC2C1c1ccc(Cl)cc1", "note": "(stereo not given)", "values": [
      {"measurement": "cell number change", "value": 33.2, "unit": "%"},
      {"measurement": "AC50", "setting": "[1]", "value": "18.4 µM [rising, partial curve, poor fit]"}
    ]},
    {"smiles": "COC(=O)c1cccc(Nc2c3c(nc4ccccc24)CCC3)c1", "values": [
      {"measurement": "cell number change", "value": 15.3, "unit": "%"},
      {"measurement": "AC50", "setting": "[2]", "value": "29.1 µM [rising, single point]"}
    ]},
    {"smiles": "CCn1ccnc1CN(C)Cc1c(C(=O)N2CCCCCCC2)nc2ccc(Cl)cn12", "values": [
      {"measurement": "cell number change", "value": 2.93, "unit": "%"}
    ]},
    {"smiles": "COc1ccc(C)cc1S(=O)(=O)N(CC(N)=O)Cc1ccccc1", "values": [
      {"measurement": "AC50", "setting": "[2]", "value": "0.731 µM [falling, single point]"}
    ]},
    {"smiles": "C/C(=N\\Nc1ccc(C(F)(F)F)cc1[N+](=O)[O-])C(C)C", "values": [
      {"measurement": "cell number change", "value": -24.2, "unit": "%"}
    ]},
    {"smiles": "Cc1ccnc(NC(=O)Cn2c(=O)oc3cc(S(=O)(=O)N4CCCC4)ccc32)c1", "values": [
      {"measurement": "cell number change", "value": -11.4, "unit": "%"},
      {"measurement": "AC50", "setting": "[2]", "value": "0.00461 µM [falling, full curve, poor fit]"}
    ]},
    {"smiles": "Cc1cc2c3c([nH]c2cc1S(=O)(=O)NCCCOC(C)C)CC(C)(C)CC3=O", "values": [
      {"measurement": "cell number change", "value": 14.2, "unit": "%"},
      {"measurement": "AC50", "setting": "[1]", "value": "1.64 µM [rising, partial curve]"}
    ]},
    {"smiles": "COc1ccc(-c2cc3ncnc(Cl)c3s2)cc1", "values": [
      {"measurement": "cell number change", "value": 0.403, "unit": "%"}
    ]},
    {"smiles": "COc1ccc(-n2cnnc2SCC(=O)Nc2cc(C(C)(C)C)nn2-c2ccccc2)cc1", "values": [
      {"measurement": "cell number change", "value": -22.8, "unit": "%"},
      {"measurement": "AC50", "setting": "[1]", "value": "3.26 µM [falling, full curve, poor fit]"},
      {"measurement": "AC50", "setting": "[2]", "value": "6.51 µM [falling, single point]"}
    ]},
    {"smiles": "CC(C)c1ccc(NC(=O)Cn2cccc2C2=NC(c3ccccc3)CO2)cc1", "note": "(stereo not given)", "values": [
      {"measurement": "cell number change", "value": 60, "unit": "%"},
      {"measurement": "AC50", "setting": "[1]", "value": "11.6 µM [rising, partial curve, poor fit]"}
    ]},
    {"smiles": "COC(=O)CSc1nnc(COc2ccc([N+](=O)[O-])cc2)n1C", "values": [
      {"measurement": "cell number change", "value": -6.62, "unit": "%"},
      {"measurement": "AC50", "setting": "[2]", "value": "0.00517 µM [falling, full curve, poor fit]"}
    ]},
    {"smiles": "COc1cccc(CNCCc2c[nH]c3ccccc23)c1OCc1ccccc1", "values": [
      {"measurement": "cell number change", "value": -56.3, "unit": "%"},
      {"measurement": "AC50", "setting": "[1]", "value": "16.4 µM [falling, single point]"},
      {"measurement": "AC50", "setting": "[2]", "value": "16.4 µM [falling, partial curve]"}
    ]},
    {"smiles": "CCc1cc(C(=O)N/N=C/c2ccc(OC)cc2)c2ccccc2n1", "values": [
      {"measurement": "cell number change", "value": 27.8, "unit": "%"},
      {"measurement": "AC50", "setting": "[2]", "value": "29.1 µM [falling, partial curve]"}
    ]},
    {"smiles": "CCC(C)N(C(=O)COC(=O)Cc1n[nH]c(=O)c2ccccc12)C1CCS(=O)(=O)C1", "note": "(stereo not given)", "values": [
      {"measurement": "cell number change", "value": 1.07, "unit": "%"}
    ]},
    {"smiles": "CCCC(=O)Nc1nc(-c2ccccc2)c(CC)s1", "values": [
      {"measurement": "cell number change", "value": 33.3, "unit": "%"},
      {"measurement": "AC50", "setting": "[1]", "value": "25.9 µM [rising, partial curve]"},
      {"measurement": "AC50", "setting": "[2]", "value": "0.411 µM [rising, full curve]"}
    ]},
    {"smiles": "CCOC(=O)C1CSC2(CCC(c3ccccc3)CC2)N1", "note": "(stereo not given)", "values": [
      {"measurement": "cell number change", "value": -44.3, "unit": "%"},
      {"measurement": "AC50", "setting": "[1]", "value": "16.4 µM [falling, partial curve]"},
      {"measurement": "AC50", "setting": "[2]", "value": "10.3 µM [falling, partial curve, poor fit]"}
    ]},
    {"smiles": "Cc1ccsc1C1NC(=O)c2c(sc3c2CCN(C)C3)N1", "note": "(stereo not given)", "values": [
      {"measurement": "cell number change", "value": -15.9, "unit": "%"},
      {"measurement": "AC50", "setting": "[1]", "value": "1.84 µM [falling, partial curve, poor fit]"},
      {"measurement": "AC50", "setting": "[2]", "value": "3.26 µM [falling, single point]"}
    ]},
    {"smiles": "Cc1ccc(NCC(=O)N/N=C\\C(Br)=C\\c2ccccc2)cc1", "values": [
      {"measurement": "cell number change", "value": -112, "unit": "%"},
      {"measurement": "AC50", "setting": "[1]", "value": "23.1 µM [falling, single point]"},
      {"measurement": "AC50", "setting": "[2]", "value": "3.66 µM [rising, partial curve]"}
    ]},
    {"smiles": "COc1ccc2nc(CC(C)(C)CC(=O)O)c[n+]([O-])c2c1", "values": [
      {"measurement": "cell number change", "value": 5.37, "unit": "%"},
      {"measurement": "AC50", "setting": "[2]", "value": "1.3 µM [falling, partial curve]"}
    ]},
    {"smiles": "CC(OC(=O)c1cccc(S(=O)(=O)N2CCCCC2)c1)C(=O)NCC1CCCCC1", "note": "(stereo not given)", "values": [
      {"measurement": "cell number change", "value": 10, "unit": "%"}
    ]},
    {"smiles": "CN1CCN(C(=S)NCCc2ccccc2)CC1", "values": [
      {"measurement": "cell number change", "value": -25.4, "unit": "%"},
      {"measurement": "AC50", "setting": "[1]", "value": "0.82 µM [falling, full curve, poor fit]"},
      {"measurement": "AC50", "setting": "[2]", "value": "0.82 µM [falling, full curve]"}
    ]},
    {"smiles": "Cc1[nH]nc2c1C1(CCOCC1)C(C#N)=C(N)O2", "values": [
      {"measurement": "cell number change", "value": 3.72, "unit": "%"},
      {"measurement": "AC50", "setting": "[2]", "value": "1.3 µM [rising, partial curve]"}
    ]},
    {"smiles": "CC(=O)c1ccc(NC(=O)CSc2nnc(Cn3cnc4ccccc43)o2)cc1", "values": [
      {"measurement": "cell number change", "value": 16.1, "unit": "%"},
      {"measurement": "AC50", "setting": "[2]", "value": "25.9 µM [rising, partial curve, poor fit]"}
    ]},
    {"smiles": "Clc1ccc(-c2nc(N3CCOCC3)nc3ccccc23)cc1", "values": [
      {"measurement": "cell number change", "value": -5.11, "unit": "%"}
    ]},
    {"smiles": "CN(C)c1ccc(C2NC(=O)c3ccccc3N2)cc1", "note": "(stereo not given)", "values": [
      {"measurement": "cell number change", "value": -39.6, "unit": "%"},
      {"measurement": "AC50", "setting": "[1]", "value": "3.66 µM [falling, partial curve, poor fit]"}
    ]},
    {"smiles": "COc1cc(NC(=O)Cn2cnc(S(=O)(=O)N3CCC(C)CC3)c2)cc(OC)c1OC", "values": [
      {"measurement": "cell number change", "value": 3.24, "unit": "%"},
      {"measurement": "AC50", "setting": "[2]", "value": "18.4 µM [rising, single point]"}
    ]},
    {"smiles": "COc1ccc(C2C(C(=O)c3cc4cccc(OC)c4o3)=C(O)C(=O)N2CCCN(C)C)cc1OC", "note": "(stereo not given)", "values": [
      {"measurement": "cell number change", "value": 15.3, "unit": "%"},
      {"measurement": "AC50", "setting": "[1]", "value": "0.00461 µM [rising, full curve, poor fit]"},
      {"measurement": "AC50", "setting": "[2]", "value": "0.58 µM [falling, full curve]"}
    ]},
    {"smiles": "S=C(Nc1cccc(Cl)c1)NC1CC2CCCC(C1)N2C1CCCC1", "note": "(stereo not given)", "values": [
      {"measurement": "cell number change", "value": 8.41, "unit": "%"},
      {"measurement": "AC50", "setting": "[1]", "value": "4.11 µM [rising, single point]"}
    ]},
    {"smiles": "Cc1cc(C)c(S(=O)(=O)N2CCCCC2CCNC(=O)C(=O)NCCN2CCOCC2)c(C)c1", "note": "(stereo not given)", "values": [
      {"measurement": "AC50", "setting": "[2]", "value": "6.51 µM [falling, single point]"}
    ]}
  ]
}
